Results are given in words; binding and its absence hold for the method and conditions named. Binding seen in cells or lysates may run through a third protein. Some binding calls cover weakened binding; strength is not graded here.
Molecular target: EP300 (human (endogenous in PC9 and A549)) (UniProt Q09472)
Experiment: co-IP; lysates of PC9 and A549 cells in IP buffer (1 mM EDTA, 20 mM HEPES, 150 mM NaCl, 0.05% sodium deoxycholate, 0.05% NP-40, protease and phosphatase inhibitors); indicated antibody and protein A/G PLUS agarose beads overnight at 4 °C; detection by Western blotting

The chains behind the UniProt entries cited, without tags or fusion partners.
UniProt Q09472: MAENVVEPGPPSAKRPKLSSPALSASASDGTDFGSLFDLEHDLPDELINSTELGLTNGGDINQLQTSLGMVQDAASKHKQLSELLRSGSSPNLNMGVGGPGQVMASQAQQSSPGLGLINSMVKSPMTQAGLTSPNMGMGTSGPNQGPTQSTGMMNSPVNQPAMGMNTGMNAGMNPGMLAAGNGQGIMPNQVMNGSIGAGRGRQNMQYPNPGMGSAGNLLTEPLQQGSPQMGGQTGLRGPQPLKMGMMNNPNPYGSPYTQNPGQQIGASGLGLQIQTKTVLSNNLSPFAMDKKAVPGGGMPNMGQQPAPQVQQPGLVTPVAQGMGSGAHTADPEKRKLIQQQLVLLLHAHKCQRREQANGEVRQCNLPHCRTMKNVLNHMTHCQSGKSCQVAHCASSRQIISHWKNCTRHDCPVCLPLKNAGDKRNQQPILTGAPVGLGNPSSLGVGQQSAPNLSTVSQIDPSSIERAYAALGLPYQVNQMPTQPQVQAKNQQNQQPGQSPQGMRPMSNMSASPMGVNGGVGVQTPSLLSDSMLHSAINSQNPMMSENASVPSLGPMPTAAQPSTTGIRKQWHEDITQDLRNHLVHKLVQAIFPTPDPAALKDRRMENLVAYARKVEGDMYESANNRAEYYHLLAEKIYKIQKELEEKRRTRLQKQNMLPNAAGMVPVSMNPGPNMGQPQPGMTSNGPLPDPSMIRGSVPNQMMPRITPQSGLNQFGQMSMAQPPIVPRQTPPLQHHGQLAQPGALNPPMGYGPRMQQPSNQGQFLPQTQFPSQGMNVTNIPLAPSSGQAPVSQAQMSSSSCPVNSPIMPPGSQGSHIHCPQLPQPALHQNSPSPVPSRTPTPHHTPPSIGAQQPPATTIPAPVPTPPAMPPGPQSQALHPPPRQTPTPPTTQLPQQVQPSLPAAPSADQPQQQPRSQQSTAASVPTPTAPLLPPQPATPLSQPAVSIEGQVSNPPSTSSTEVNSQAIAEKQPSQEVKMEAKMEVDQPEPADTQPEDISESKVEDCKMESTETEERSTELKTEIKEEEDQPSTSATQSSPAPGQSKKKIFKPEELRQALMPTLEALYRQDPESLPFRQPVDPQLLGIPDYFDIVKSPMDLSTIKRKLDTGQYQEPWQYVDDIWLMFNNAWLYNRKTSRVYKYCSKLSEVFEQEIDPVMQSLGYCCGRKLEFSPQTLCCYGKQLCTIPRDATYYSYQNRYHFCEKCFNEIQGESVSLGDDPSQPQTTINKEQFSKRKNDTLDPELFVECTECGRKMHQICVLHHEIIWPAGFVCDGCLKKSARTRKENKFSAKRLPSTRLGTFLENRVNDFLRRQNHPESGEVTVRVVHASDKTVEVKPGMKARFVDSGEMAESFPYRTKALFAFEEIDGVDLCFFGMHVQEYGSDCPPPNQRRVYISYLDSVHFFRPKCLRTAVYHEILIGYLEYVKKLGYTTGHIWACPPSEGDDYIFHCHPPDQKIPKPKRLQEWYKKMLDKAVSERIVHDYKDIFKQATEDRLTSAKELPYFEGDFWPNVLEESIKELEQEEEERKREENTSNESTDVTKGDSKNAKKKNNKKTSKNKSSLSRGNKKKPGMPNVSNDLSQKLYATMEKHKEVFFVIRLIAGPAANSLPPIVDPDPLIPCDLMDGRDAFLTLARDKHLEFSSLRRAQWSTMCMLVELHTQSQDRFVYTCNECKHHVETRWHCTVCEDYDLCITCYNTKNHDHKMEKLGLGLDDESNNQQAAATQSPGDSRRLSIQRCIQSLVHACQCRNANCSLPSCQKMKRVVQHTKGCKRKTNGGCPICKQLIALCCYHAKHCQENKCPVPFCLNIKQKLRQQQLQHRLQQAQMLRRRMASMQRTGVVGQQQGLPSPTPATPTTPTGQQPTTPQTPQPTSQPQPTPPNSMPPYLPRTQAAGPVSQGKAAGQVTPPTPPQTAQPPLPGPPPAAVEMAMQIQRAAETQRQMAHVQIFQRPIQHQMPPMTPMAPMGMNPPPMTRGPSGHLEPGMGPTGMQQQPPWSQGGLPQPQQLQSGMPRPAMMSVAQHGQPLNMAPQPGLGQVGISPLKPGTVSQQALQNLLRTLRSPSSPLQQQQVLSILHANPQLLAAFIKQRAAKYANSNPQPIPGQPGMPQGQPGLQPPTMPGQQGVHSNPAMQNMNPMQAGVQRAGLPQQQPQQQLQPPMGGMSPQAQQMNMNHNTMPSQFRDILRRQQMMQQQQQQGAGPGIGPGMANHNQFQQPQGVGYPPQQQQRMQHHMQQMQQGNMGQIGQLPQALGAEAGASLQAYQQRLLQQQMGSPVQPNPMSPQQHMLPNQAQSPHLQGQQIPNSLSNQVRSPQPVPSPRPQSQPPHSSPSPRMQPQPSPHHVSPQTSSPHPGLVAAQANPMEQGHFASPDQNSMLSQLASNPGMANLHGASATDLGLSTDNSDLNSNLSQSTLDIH
UniProt P25490: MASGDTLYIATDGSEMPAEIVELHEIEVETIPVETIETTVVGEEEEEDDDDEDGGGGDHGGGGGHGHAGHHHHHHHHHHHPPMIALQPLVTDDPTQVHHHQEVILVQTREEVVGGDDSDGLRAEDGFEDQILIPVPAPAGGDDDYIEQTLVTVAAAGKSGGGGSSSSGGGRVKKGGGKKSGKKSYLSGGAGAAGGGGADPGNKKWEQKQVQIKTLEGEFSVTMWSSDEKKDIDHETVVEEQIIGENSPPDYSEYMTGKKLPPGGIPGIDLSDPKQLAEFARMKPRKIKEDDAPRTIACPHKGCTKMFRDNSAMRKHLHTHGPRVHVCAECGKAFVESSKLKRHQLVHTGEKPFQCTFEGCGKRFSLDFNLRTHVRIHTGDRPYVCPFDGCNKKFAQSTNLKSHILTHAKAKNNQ

binding: binds
Substance: YY1 (from UniProt P25490 1-414)
